Test results from PubChem BioAssay AID493014 (National Center for Advancing Translational Sciences (NCATS), 2011).
The campaign covered roughly 340,000 compounds. About 170 (0.05%) were called active. Inconclusive means that the source gave no clear call. Such entries were picked first, then a sample of the others. Calls follow the shape of the dose curve; as a rule, active = well fitted inhibition curve with a large enough effect in the signal ratio, with a control signal flat (not every such curve was filed as active); inconclusive = small, poorly fitted or top-dose-only effect, or effect the other way, or a change in a side signal; inactive = flat fitted curve, though single readings scatter; the % refers to the signal ratio. Where the call is inconclusive, the potency comes from a doubtful curve fit.

Test: qHTS Assay to Find Inhibitors of Chronic Active B-Cell Receptor Signaling;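 as to activity change, negative = inhibition: plate controls were basal doxycycline-induced cells for no effect and cells given 10 µM MG132 for full effect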
Conditions: ABC-DLBCL IkBa-CBG/CBR reporter, luminescence ratio (green luciferase fused to IkBa over red control in TMD8 lymphoma cells), 4 h; activity change, negative = inhibition: at 46.1 µM (top of the series)
How it was run: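 TMD8 human ABC-DLBCL cells with doxycycline-inducible IκBα–green luciferase fusion and unfused red luciferase, in 0.5% FBS medium; compounds up to 46 uM, 4 h at 37C. Green/red luminescence ratio, filter-overlap corrected, fitted to concentration-response curves.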
Potency is read from the fitted curve at half-maximal effect.

Row | Structure (SMILES) | activity change, negative = inhibition | Potency
1 | CC(C)Cc1nnc(NC(=O)c2ccncc2)s1 | inconclusive: -19.3% | –
2 | CCCOCC(O)CCc1n[nH]c(=S)n1-c1ccccc1 (stereo not given) | inactive: 1.64% | –
3 | Cc1cc(SCC(=O)c2ccccc2)n2nc(C)nc2n1 | inconclusive: -0.442% | –
4 | O=C(NC1CCCC1)c1ccc(Cl)s1 | inactive: 0.0934% | –
5 | O=C(NCC(c1ccc(F)cc1)N1CCOCC1)c1nn(-c2ccccc2)c(=O)c2ccccc12 (stereo not given) | inactive: 0% | –
6 | Cc1[nH]n(-c2ccc(F)cc2)c(=O)c1/C=N/c1sc2c(c1C#N)CCCC2 | – | inconclusive: 7.94 µM [falling, partial curve]
7 | CCOC(=O)Nc1cc2c(C)cc(=O)oc2cc1C | inactive: 0.184% | –
8 | O=C1CCCC2=C1C(c1ccc(Br)cc1)c1c([nH]c(=S)[nH]c1=O)N2 (stereo not given) | inconclusive: 5.87% | –
9 | Cc1sc2ncnc(N3CCOCC3)c2c1C | – | inconclusive: 10.3 µM [falling, partial curve, poor fit]
10 | C=CCN(c1ccc(C(=O)NCCc2ccccc2)cc1)S(C)(=O)=O | inconclusive: 21.2% | –
11 | Cc1cc(SCn2nnc3ccccc3c2=O)nc2ccccc12 | inactive: -0.392% | –
12 | Cc1ccc(-n2nnnc2C(=Cc2ccc(N(C)C)cc2)c2nnnn2-c2ccc(C)cc2)cc1 | – | inconclusive: 15.8 µM [rising, single point]
13 | COc1ccc(C(=O)N/N=C/c2ccc(OC)c(COc3ccccc3)c2)cc1 | inactive: 12% | –
14 | CC1(NC(=O)Cc2csc(-c3cccc(Cl)c3)n2)CCS(=O)(=O)C1 (stereo not given) | inconclusive: 3.95% | –
15 | COc1ccccc1NC(=O)c1ccc(CS(=O)(=O)c2ccc(C)cc2)cc1 | inconclusive: 4.28% | –
16 | Cc1ccc2nc(N/N=C/c3ccccc3C#N)nc(-c3ccccc3)c2c1 | – | inconclusive: 2.82 µM [falling, partial curve, poor fit]
17 | Cc1ccc(-n2c(SCC(=O)Nc3cccc(S(=O)(=O)NC4=NCCCCC4)c3)nc3ccccc3c2=O)cc1C | inactive: 5.43% | –
18 | Cc1c(CC(=O)N2CCC(C(=O)O)CC2)c(=O)oc2cc3c(cc12)CCC1(CCCCC1)O3 | – | inconclusive: 35.5 µM [falling, partial curve, poor fit]
19 | Cc1ccc(Oc2ccc(-c3nc(N)nc(N)n3)cc2)cc1C | – | inconclusive: 18.4 µM [falling, single point]
20 | Nc1[nH]n(-c2ccccc2)c(=O)c1N=Nc1ccccc1 | – | inconclusive: 15.8 µM [falling, partial curve]
21 | CC1(C)CCC[C@]2(C)[C@H]3Cc4cc(O)ccc4O[C@]3(C)CC[C@@H]12 | inconclusive: 9.33% | –
22 | COC(=O)c1c(NC(=O)C2C3CCC(C3)C2C(=O)O)sc2c1CCCCC2 (stereo not given) | inconclusive: 13.7% | –
23 | CCOC(=O)c1ccc(NC(=O)c2ccccc2)cc1 | – | inconclusive: 32.6 µM [falling, partial curve, poor fit]
24 | CCN(CC)CCn1c(NCc2nc3ccccc3n2Cc2ccccc2)nc2ccccc21 | inactive: 1.31% | –
25 | CCOc1ccc(C=NNc2ccc(S(=O)(=O)Nc3ccccc3C(=O)O)cc2[N+](=O)[O-])cc1OC | inconclusive: -0.184% | –
26 | COc1ccc(/C(N)=N/OC(=O)Cc2ccc(C)cc2)cc1OC | inconclusive: 7.58% | –
27 | CC(=O)Nc1ccc(NC2CCCCC2NS(=O)(=O)c2ccc(Cl)cc2)cc1 (stereo not given) | inactive: 4.24% | –

Look-ups from the list.
Under activity change, negative = inhibition, COC(=O)c1c(NC(=O)C2C3CCC(C3)C2C(=O)O)sc2c1CCCCC2 (stereo not given) is listed with inconclusive: 13.7%
Under activity change, negative = inhibition, COc1ccccc1NC(=O)c1ccc(CS(=O)(=O)c2ccc(C)cc2)cc1 is listed with inconclusive: 4.28%
Under activity change, negative = inhibition, CC1(C)CCC[C@]2(C)[C@H]3Cc4cc(O)ccc4O[C@]3(C)CC[C@@H]12 is listed with inconclusive: 9.33%
Under Potency, Nc1[nH]n(-c2ccccc2)c(=O)c1N=Nc1ccccc1 is listed with inconclusive: 15.8 µM [falling, partial curve]
Under Potency, Cc1ccc2nc(N/N=C/c3ccccc3C#N)nc(-c3ccccc3)c2c1 is listed with inconclusive: 2.82 µM [falling, partial curve, poor fit]
Under activity change, negative = inhibition, O=C(NCC(c1ccc(F)cc1)N1CCOCC1)c1nn(-c2ccccc2)c(=O)c2ccccc12 (stereo not given) is listed with inactive: 0%

(next part)

Row | Structure (SMILES) | activity change, negative = inhibition | Potency
28 | O=C(Cn1nnc(-c2ccc(F)cc2)n1)OCC(=O)c1ccccc1 | inconclusive: -6.21% | –
29 | c1ccc(Cn2nnc3c(N4CCCC4)ncnc32)cc1 | inactive: 0.783% | –
30 | O=C(Nc1ccccc1)C1=C[C@@H](c2ccccc2)C[C@@H](OCc2ccc(CO)cc2)O1 | inconclusive: 226% | –
31 | COc1ccc(C(=O)c2c(N)sc3c2CCN(C)C3)cc1 | inconclusive: -1.05% | –
32 | Cc1cccnc1Nc1nc(-c2ccc(O)c(O)c2)cs1 | – | inconclusive: 5.8 µM [falling, full curve]
33 | Cc1cccc(C)c1OCC(O)CNC(C)c1ccccc1 (stereo not given) | inconclusive: -7.2% | –
34 | Cc1cc(/C=N/n2cnnc2)c(C)n1-c1ccc(OCc2ccc(Cl)cc2)cc1 | – | inconclusive: 29.1 µM [falling, single point]
35 | COc1ccc(C(CC(=O)O)NC(=O)c2cccs2)cc1 (stereo not given) | inconclusive: 3.85% | –
36 | CCOc1ccccc1C(=O)Nc1ccc2c(c1)N(C)C(=O)c1ccccc1S2 | – | inconclusive: 8.91 µM [falling, partial curve]
37 | Cc1ccccc1OCC(=O)N(Cc1nc(-c2ccccc2)no1)C(C)C | – | inconclusive: 23.1 µM [falling, partial curve, poor fit]
38 | O=C(CSC(=S)N1CCOCC1)Nc1nc(-c2ccccc2)c(-c2ccccc2)o1 | inconclusive: 7.48% | –
39 | COc1cc(OC)cc(C(=O)Nc2ccc(Nc3ccccc3)cc2)c1 | inconclusive: -17.8% | –
40 | O=C(OCc1nc2ccccc2s1)C1CCN(S(=O)(=O)c2cccs2)CC1 | – | inconclusive: 29.1 µM [rising, partial curve, poor fit]
41 | O=C(O)c1ccc(COc2ccc([N+](=O)[O-])cc2)o1 | inconclusive: -19.3% | –
42 | COc1ccccc1NC(=O)c1nnn(CC(=O)Nc2ccccc2)c1N | – | inconclusive: 2.31 µM [falling, full curve]
43 | CCOC(=O)C1CCCN(C(=O)C2c3ccccc3Oc3ccccc32)C1 (stereo not given) | inconclusive: -10.1% | –
44 | CCOc1ccc(CCNC(=O)Cn2c(-c3nonc3N)nc3ccccc32)cc1OCC | inconclusive: 5.55% | –
45 | CCOC(=O)c1c(NCC2CCCO2)c2ccccc2[nH]c1=O (stereo not given) | inactive: 2.86% | –
46 | CCC[N+]1(CC#CC2(O)CCCCC2)CCOCC1 | – | inconclusive: 35.5 µM [falling, single point]
47 | CC(C)c1ccc(S(=O)(=O)/N=C2/C=C(Sc3ncn[nH]3)C(=O)c3ccccc32)cc1 | – | inconclusive: 1.03 µM [falling, full curve, poor fit]
48 | Cc1ccc(C)c(Nc2c([N+](=O)[O-])ccc3nonc23)c1 | inconclusive: -0.484% | –
49 | Nc1c(C(=O)c2ccc(Br)s2)oc2ccccc12 | inconclusive: -2.23% | –
50 | CSCCC(NS(=O)(=O)c1ccc(Cl)cc1)C(=O)OCc1c(Cl)cccc1Cl (stereo not given) | inactive: -0.215% | –
51 | O=C(c1ccco1)N1CCN(C(=O)C2CCCO2)CC1 (stereo not given) | inconclusive: 10.8% | –
52 | COc1ccc(C(CNC(=O)C2CC(=O)N(Cc3ccccc3)C2)N2CCCC2)cc1 (stereo not given) | inactive: 0.702% | –
53 | CN(Cc1ccccc1)C(=O)c1[nH]cnc1C(=O)Nc1cccc(Cl)c1 | inactive: 0.934% | –
54 | CCOC(=O)c1cc(-c2ccc(C)cc2)n(CCC(=O)NCCN(C)C)c1C | inactive: -6.94% | –

Row | Structure (SMILES) | activity change, negative = inhibition | Potency
55 | CC(C)CCNC(=O)C(=O)Nc1ccc2c(c1)N(S(=O)(=O)c1cccs1)CCC2 | – | inconclusive: 16.4 µM [falling, partial curve]
56 | COc1cccc(/C=N/Nc2ncnc3c2[nH]c2ccc(C)cc23)c1OC | inactive: -1.85% | –
57 | CO[C@H]1CC[C@@]2(C)[C@@H](CC[C@@H]3[C@@H]2CC[C@@]2(C)[C@H]3C[C@H](C(=O)O)O[C@]23CCCO3)C1 | inactive: -5.3% | –
58 | Cc1nc(NCCc2ccc(O)cc2)c2nnn(Cc3ccccc3)c2n1 | – | inconclusive: 8.91 µM [falling, partial curve, poor fit]
59 | O=C(O)c1cccc(OS(=O)(=O)c2cc(Br)ccc2Br)c1 | inconclusive: 2.68% | –
60 | CCN=c1scc(C)n1/N=C/c1cc(Br)c(O)c(Br)c1 | inactive: 5.53% | –
61 | CCC1c2ccc(C)n2CCN1C(=O)Nc1ccccc1C(=O)OC (stereo not given) | inactive: -3.49% | –
62 | Cc1nc(NC(=S)NC(=O)c2ccco2)sc1C(=O)N(C)C | – | inconclusive: 20 µM [falling, partial curve]
63 | C=CCSc1nc2sc(C)c(C)c2c(=O)n1CC=C | – | inconclusive: 16.4 µM [rising, partial curve, poor fit]
64 | COc1cccc(C(=O)Nc2ccc3c(C)cc(=O)oc3c2)c1 | – | inconclusive: 1.78 µM [falling, full curve, poor fit]
65 | COc1cccc(NC(=O)Nc2ccc3nc(C)c(C)nc3c2)c1 | inconclusive: -0.268% | –
66 | CCOC(=O)c1cc(-c2ccccc2)n(CCCC(=O)Nc2cccc(C)c2C)c1C | inconclusive: 14.1% | –
67 | Cc1cccnc1NC(=O)c1ccc(Cl)c(S(=O)(=O)N2CCCC2)c1 | inactive: 7.56% | –
68 | O=C(CN1CCN(C(=O)c2ccco2)CC1)Nc1ccc(F)cc1F | – | inconclusive: 11.2 µM [falling, partial curve]
69 | COc1ccc(C2=NN(c3ccccc3)C(c3cccs3)C2)cc1 (stereo not given) | inconclusive: 24.6% | –
70 | O=C(CCN1C(=O)c2ccccc2S1(=O)=O)N1CCN(c2ccccc2)CC1 | inconclusive: 3.75% | –
71 | CCN(CC(=O)Nc1c(F)cccc1F)C(=O)/C=C/c1ccc(C)o1 | inconclusive: -24.2% | –
72 | OC(CNC1CCCC1)COc1ccc(-c2ccccc2)cc1 (stereo not given) | inactive: -2.81% | –
73 | COP(=O)(c1ccc(N(C)C)cc1)C(O)c1ccccc1 (stereo not given) | inconclusive: -0.614% | –
74 | COc1cc(C=O)ccc1OCc1ccccc1Br | inactive: -1.92% | –
75 | Cc1cc(C)cc(NC(=S)NN)c1 | – | inconclusive: 35.5 µM [falling, single point]
76 | COc1ccc(CCNC(=O)c2n[nH]c3ccccc23)cc1 | – | inconclusive: 22.4 µM [falling, single point]
77 | Cc1ccc(NC(=O)c2c(C)noc2C)cc1S(=O)(=O)N1CCOCC1 | inconclusive: -2.15% | –
78 | C[C@]12CC[C@@H]3c4cc(O)c(O)cc4CC[C@H]3[C@@H]1CC[C@@H]2O | – | inconclusive: 11.2 µM [falling, partial curve]
79 | Cc1cccc(Nc2nnc(SCC3CCCCO3)s2)c1 (stereo not given) | inconclusive: -17.3% | –
80 | COc1cccc(-c2ccc(NC(=O)C3CCCN(Cc4cnc(C)s4)C3)cc2)c1 (stereo not given) | inconclusive: -11.5% | –
